At least one compound was matched to its structure with a doubt left.
System: serum cytokines
Assay: Serum cytokines after administration
Conditions: in vivo

COCCOc1nc(N)c2nc(O)n(Cc3ccc(CP(=O)(O)O)cc3)c2n1 [Compound 6, (4-((6-amino-2-(2-methoxyethoxy)-8-oxo-7H-purin-9(8H)-yl)methyl)benzyl)phosphonic acid]
effect of adsorption to Al—H on systemic cytokines: enhanced

Source: US20120177681A1, “Formulation of immunopotentiators” (priority 2010, published 2012)
